Experimental data reported in paper PMC10020456.
Results are given in words; binding and its absence hold for the method and conditions named. In cells and extracts the contact can be indirect. Some results given as binding are weak or reduced against the parent protein; the word gives no strength. Where a sequence is shown, tags or fusion partners need not be part of it.

Chains of the proteins cited; added tags and fusions are not shown.
UniProt P52480: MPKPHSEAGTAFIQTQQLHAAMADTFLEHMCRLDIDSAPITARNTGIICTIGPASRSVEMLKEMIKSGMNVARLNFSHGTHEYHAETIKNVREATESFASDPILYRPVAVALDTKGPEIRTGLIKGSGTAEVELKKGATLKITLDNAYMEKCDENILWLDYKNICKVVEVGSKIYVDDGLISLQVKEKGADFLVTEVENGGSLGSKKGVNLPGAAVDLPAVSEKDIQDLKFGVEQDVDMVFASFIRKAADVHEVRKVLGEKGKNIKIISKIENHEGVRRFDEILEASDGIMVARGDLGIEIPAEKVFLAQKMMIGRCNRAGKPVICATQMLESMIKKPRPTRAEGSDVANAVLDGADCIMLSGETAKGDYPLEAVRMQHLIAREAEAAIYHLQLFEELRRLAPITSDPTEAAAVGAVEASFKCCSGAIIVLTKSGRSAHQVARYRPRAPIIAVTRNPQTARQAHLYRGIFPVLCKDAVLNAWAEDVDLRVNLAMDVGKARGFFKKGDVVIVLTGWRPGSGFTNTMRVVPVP

Key:
[1] = target: T1, full-length IgSF11 (immunoglobulin superfamily 11), C-terminally FLAG-tagged (UniProt P0C673); experiment: co-IP; IgSF11-/- BMMs retrovirally transduced with C-terminally Flag-tagged IgSF11-FL or IgSF11-Mt353, lysed, immunoprecipitated with anti-Flag antibodies, western blotting for PKM2
T1 sequence: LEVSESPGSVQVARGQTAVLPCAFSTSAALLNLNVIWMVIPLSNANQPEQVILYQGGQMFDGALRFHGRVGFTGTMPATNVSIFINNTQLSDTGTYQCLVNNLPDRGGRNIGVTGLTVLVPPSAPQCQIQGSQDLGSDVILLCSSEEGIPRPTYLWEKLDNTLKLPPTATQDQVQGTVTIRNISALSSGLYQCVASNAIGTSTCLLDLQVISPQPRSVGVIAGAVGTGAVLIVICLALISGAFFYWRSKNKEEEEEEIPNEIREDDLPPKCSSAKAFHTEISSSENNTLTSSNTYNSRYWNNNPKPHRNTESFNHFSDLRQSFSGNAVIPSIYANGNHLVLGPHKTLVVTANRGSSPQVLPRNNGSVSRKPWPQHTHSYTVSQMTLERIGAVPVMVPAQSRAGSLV

[2] = target: T2, C-terminal deletion mutant form of IgSF11 (IgSF11-Mt353), C-terminally FLAG-tagged (UniProt P0C673); experiment: as above
T2 sequence: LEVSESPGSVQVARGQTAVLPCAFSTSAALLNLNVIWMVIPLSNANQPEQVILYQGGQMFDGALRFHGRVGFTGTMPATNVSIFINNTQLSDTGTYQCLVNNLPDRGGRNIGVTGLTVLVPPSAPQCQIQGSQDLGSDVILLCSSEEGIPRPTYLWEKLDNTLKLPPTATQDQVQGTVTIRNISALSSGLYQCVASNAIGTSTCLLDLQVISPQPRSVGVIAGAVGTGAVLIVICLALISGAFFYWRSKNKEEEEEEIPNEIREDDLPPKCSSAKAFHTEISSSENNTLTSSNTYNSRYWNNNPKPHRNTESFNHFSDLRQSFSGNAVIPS

- binding [1]: binds
- binding [2]: binds weakly
Substance: pyruvate kinase M isoform 2 (PKM2) (from UniProt P52480 1-531) (enzyme)
